Shown are results outside the selection of targets with a hit, which stands elsewhere. This is a noisy data set. The list shows a part of the results, in another mix than the full data.
compound: COC(=O)/C=C/c1ccccc1 [methyl cinnamate]; assay: log2 ratio of iodoacetamide-alkyne labeling of the cysteine site, DMSO over compound (competition); higher = stronger covalent engagement of the cysteine by the compound, active = 1 or more; settings: 500 µM; treatment time 1 h; system: HEK293T cell lysate
Method in brief: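 The log2 competition ratio per cysteine is defined as mean reporter intensity in control channels over mean reporter intensity in compound channels. Lysate from HEK293T cells (2 mg/mL) received electrophile (500 µM) or vehicle for 1 h at ambient temperature, followed by iodoacetamide alkyne for 1 h. Samples were clicked to sCIP-TMT reagents, pooled, trypsin-digested overnight at 37 °C, streptavidin-enriched, acid-eluted and run on Orbitrap Eclipse LC-MS/MS with FAIMS, with quantification in FragPipe. Three replicates with duplicate channels were used, and any cysteine quantified in only one replicate was excluded.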

Chains of the proteins cited; added tags and fusions are not shown. Lines headed by an entry give the natural chain unless they say otherwise; changes in a name come on top.
UniProt Q6DKJ4: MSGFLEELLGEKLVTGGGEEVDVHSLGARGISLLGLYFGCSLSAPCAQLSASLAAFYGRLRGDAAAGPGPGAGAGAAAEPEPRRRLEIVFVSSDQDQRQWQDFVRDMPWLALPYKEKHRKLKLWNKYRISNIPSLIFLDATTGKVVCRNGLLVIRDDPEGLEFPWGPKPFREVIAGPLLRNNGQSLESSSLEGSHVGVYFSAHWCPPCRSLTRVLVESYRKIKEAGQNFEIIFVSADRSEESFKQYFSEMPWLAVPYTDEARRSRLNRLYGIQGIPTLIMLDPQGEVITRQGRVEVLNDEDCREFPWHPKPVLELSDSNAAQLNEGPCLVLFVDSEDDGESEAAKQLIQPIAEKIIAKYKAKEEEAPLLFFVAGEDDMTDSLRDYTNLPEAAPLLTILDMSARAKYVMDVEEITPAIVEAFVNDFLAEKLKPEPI
UniProt Q6PJG6: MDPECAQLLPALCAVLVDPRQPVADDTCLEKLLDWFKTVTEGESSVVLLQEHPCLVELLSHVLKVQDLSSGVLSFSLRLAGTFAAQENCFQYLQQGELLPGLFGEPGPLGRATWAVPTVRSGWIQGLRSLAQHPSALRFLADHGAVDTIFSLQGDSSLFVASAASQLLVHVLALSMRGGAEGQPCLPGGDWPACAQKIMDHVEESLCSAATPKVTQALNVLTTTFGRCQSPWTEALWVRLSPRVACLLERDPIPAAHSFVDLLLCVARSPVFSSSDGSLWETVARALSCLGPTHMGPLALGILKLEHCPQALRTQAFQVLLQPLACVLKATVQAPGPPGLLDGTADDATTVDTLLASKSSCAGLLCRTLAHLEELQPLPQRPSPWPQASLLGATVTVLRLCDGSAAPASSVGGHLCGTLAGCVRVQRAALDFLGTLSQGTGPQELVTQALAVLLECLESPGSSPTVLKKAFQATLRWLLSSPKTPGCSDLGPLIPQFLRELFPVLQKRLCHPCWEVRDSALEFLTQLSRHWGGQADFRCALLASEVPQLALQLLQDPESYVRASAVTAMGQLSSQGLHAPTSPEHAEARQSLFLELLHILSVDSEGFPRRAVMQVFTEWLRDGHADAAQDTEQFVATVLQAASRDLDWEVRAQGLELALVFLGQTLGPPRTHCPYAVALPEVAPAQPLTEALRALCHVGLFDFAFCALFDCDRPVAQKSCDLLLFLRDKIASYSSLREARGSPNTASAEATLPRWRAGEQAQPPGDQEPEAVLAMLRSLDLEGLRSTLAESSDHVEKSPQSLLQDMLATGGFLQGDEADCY
UniProt Q6P2E9: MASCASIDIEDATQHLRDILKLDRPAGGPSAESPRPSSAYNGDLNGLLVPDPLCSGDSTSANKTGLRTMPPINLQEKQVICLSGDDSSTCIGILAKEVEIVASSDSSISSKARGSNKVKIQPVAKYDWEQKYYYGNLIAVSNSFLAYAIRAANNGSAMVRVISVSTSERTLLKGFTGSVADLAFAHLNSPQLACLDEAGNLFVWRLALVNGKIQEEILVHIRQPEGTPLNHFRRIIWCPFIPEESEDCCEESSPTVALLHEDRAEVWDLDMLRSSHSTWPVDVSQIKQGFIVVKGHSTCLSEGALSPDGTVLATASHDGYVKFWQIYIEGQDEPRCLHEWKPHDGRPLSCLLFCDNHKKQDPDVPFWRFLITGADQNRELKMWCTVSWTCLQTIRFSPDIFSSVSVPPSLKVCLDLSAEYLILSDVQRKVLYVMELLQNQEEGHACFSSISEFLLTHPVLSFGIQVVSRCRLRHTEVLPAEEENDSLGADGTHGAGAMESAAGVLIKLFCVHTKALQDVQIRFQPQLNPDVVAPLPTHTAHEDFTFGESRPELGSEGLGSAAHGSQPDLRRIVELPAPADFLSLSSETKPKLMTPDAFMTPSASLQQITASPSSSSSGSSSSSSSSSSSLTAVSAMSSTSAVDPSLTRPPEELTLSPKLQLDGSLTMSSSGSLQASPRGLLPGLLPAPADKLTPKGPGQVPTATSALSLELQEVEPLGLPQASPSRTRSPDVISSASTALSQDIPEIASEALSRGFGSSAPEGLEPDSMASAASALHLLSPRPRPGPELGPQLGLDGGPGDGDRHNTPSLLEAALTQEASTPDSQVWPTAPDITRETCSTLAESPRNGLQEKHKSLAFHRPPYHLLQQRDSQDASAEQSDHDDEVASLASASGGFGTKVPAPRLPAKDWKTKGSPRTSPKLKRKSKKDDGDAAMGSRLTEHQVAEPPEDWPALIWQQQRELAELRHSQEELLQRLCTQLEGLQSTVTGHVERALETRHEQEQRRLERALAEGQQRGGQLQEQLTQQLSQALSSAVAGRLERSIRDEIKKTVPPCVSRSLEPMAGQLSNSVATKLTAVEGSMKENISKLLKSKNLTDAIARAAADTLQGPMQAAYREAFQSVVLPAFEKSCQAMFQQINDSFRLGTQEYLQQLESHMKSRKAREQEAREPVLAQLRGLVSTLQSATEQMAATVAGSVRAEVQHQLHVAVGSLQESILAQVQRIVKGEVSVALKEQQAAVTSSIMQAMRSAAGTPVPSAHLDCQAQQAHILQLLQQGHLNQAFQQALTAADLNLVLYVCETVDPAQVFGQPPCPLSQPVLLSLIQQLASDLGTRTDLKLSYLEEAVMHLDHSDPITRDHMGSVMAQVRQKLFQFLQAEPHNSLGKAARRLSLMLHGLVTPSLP
UniProt Q6NZ36: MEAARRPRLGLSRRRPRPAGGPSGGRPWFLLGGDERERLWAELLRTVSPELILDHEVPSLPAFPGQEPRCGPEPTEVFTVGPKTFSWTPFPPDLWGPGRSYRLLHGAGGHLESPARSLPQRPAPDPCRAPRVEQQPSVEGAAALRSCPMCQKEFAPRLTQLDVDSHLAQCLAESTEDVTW
UniProt Q6UB99: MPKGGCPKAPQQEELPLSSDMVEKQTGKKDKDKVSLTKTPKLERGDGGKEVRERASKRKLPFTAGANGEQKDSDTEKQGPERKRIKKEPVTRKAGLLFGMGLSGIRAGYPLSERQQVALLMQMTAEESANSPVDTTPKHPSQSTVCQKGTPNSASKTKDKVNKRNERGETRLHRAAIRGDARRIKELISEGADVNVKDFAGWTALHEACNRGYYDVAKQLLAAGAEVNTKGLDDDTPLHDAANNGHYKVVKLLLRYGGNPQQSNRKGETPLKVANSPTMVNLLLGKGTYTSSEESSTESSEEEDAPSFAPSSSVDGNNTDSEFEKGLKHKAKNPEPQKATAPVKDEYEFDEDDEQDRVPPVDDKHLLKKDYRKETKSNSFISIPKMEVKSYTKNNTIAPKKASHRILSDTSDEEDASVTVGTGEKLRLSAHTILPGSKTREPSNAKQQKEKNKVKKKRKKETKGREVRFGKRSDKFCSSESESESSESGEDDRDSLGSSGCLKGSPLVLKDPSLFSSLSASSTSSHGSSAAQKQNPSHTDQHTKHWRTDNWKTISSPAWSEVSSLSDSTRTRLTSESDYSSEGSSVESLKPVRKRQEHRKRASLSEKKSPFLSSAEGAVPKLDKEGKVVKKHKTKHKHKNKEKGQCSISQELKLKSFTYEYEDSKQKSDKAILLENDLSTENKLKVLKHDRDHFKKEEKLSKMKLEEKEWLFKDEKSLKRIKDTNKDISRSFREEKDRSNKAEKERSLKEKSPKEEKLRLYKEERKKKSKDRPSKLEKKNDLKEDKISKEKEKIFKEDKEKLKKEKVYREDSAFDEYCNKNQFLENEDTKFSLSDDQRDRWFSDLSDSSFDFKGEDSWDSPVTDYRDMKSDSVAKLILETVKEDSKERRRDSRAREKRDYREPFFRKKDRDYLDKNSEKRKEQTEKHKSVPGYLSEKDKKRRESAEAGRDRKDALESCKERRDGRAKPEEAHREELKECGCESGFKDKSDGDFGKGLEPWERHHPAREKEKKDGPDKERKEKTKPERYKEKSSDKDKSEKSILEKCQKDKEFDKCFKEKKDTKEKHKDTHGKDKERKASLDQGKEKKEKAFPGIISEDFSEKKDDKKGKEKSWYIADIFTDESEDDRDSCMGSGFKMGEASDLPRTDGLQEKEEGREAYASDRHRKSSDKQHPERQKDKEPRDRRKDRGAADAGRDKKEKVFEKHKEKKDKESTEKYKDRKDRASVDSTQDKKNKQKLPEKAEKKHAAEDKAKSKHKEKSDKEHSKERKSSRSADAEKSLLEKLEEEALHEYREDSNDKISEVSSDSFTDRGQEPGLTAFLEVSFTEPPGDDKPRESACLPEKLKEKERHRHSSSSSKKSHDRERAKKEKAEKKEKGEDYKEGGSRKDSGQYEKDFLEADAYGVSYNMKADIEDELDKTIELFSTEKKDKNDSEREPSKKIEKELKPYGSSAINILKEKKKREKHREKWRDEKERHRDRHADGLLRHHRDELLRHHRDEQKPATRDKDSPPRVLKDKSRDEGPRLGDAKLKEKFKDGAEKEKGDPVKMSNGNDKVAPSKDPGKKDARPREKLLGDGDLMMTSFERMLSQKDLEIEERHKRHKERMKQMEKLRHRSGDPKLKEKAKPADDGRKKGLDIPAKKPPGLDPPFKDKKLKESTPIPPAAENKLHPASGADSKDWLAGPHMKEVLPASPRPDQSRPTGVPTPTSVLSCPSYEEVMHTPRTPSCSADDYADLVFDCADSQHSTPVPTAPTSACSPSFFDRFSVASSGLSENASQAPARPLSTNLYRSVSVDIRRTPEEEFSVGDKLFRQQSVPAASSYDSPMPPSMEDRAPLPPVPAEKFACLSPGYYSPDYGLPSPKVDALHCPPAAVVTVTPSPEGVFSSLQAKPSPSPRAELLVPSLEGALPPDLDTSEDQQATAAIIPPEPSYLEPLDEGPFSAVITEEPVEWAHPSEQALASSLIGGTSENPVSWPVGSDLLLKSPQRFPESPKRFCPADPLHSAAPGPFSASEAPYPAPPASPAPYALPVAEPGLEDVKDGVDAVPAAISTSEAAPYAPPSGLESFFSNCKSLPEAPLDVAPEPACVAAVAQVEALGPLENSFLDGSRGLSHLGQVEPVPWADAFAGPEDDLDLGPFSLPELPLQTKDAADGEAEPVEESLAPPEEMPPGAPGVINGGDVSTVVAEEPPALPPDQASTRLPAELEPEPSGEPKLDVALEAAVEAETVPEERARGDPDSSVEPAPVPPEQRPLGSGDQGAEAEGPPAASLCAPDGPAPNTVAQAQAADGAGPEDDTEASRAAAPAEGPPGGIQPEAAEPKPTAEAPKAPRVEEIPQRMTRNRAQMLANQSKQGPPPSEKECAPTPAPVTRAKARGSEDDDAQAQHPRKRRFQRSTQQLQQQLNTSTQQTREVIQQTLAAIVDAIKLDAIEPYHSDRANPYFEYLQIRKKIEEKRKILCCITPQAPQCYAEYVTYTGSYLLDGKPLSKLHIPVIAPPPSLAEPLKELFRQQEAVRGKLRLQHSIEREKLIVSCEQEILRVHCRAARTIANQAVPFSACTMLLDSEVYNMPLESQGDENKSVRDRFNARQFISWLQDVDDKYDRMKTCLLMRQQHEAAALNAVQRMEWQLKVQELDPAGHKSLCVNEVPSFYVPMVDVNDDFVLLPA
UniProt Q5T280: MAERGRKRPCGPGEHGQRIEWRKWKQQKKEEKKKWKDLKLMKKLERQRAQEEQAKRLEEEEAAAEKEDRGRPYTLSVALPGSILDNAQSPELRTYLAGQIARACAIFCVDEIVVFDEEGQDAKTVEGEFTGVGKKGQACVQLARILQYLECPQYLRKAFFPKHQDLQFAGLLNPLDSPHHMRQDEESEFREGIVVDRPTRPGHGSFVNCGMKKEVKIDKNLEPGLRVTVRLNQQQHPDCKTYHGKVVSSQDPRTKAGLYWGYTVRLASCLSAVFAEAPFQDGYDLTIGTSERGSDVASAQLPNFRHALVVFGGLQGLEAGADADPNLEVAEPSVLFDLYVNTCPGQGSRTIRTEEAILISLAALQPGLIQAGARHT
UniProt Q5QJ74: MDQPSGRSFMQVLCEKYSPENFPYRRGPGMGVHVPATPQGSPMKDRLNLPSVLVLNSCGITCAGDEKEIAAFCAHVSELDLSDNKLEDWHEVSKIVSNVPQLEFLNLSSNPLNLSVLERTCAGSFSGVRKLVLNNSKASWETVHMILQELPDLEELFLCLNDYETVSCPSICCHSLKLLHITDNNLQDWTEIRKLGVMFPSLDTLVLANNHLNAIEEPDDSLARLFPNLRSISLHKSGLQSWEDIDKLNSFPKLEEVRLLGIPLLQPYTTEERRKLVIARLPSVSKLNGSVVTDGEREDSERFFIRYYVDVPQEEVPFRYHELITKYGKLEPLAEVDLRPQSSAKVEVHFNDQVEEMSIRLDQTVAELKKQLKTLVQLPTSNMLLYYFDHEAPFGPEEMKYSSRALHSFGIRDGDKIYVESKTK

Target	log2 ratio of iodoacetamide-alkyne labeling
NXN C147 (UniProt Q6DKJ4)	inactive: 0.226
ATAD3B C616 (UniProt Q5T9A4)	inactive: -0.0264
UniProt Q6PJG6_C720	inactive: -0.0205
EDC4 C1130 (UniProt Q6P2E9)	inactive: 0.135
DNAJC14 C537 (UniProt Q6Y2X3)	inactive: 0.477
ALKBH5 C378 (UniProt Q6P6C2)	inactive: 0.418
FAAP20 C70 (UniProt Q6NZ36)	inactive: 0.0933
IQSEC1 C906 (UniProt Q6DN90)	inactive: 0.0691
UniProt Q5T8A7_C245	inactive: -0.0746
UBAP2 C104 (UniProt Q5T6F2)	inactive: 0.169
ARHGAP17 C53 (UniProt Q68EM7)	inactive: 0.362
THADA C144 (UniProt Q6YHU6)	inactive: 0.159
ANKRD11 C1845 (UniProt Q6UB99)	inactive: 0.557
UniProt Q5T280_C239	inactive: 0.0309
UBR4 C1450 (UniProt Q5T4S7)	inactive: 0.181
ARID2 C1319 (UniProt Q68CP9)	inactive: 0.173
RRP12 C261 (UniProt Q5JTH9)	inactive: 0.141
HSDL2 C71 (UniProt Q6YN16)	inactive: 0.286
HIST2H3A C111 (UniProt Q71DI3)	inactive: -0.13
TBCEL C121 (UniProt Q5QJ74)	inactive: -0.108
ZNF318 C2025 (UniProt Q5VUA4)	inactive: -0.117

Rewritten with bars between the fields: part of the list above
Target | log2 ratio of iodoacetamide-alkyne labeling
DNAJC14 C537 (UniProt Q6Y2X3) | inactive: 0.477
ALKBH5 C378 (UniProt Q6P6C2) | inactive: 0.418
FAAP20 C70 (UniProt Q6NZ36) | inactive: 0.0933
IQSEC1 C906 (UniProt Q6DN90) | inactive: 0.0691
UniProt Q5T8A7_C245 | inactive: -0.0746
UBAP2 C104 (UniProt Q5T6F2) | inactive: 0.169
